In patent US8178688B2, “Benzamidine derivatives, process for the preparation thereof and pharmaceutical composition comprising the same” (Dong Wha Pharmaceutical Co., Ltd., priority 2004, dated 2012):
At least one compound was matched to its structure with a doubt left.

Tested on: osteoclast differentiation
Test: Inhibitory effects on osteoclast differentiation (co-culture of bone marrow cells with osteoblast, TRAP staining)
Assay type: cell-based, mice
Conditions: co-culture of bone marrow cells and osteoblast, 7 days, TRAP-positive osteoclasts versus controls
Experimental: The effect of benzamidine derivatives of the present invention on osteoclast proliferation and differentiation process was evaluated via co-culture with osteoblast.
Tibia and Femora were aseptically ectomized from male ddY mice of 6-8 weeks to harvest bone marrow cells by using a syringe (21G, Korea Green Cross).
The bone marrow cells were suspended in 5 mL α-MEM medium (Gibco BRL Co.) containing sodium bicarbonate (2.0 g/L), streptomycin (100 mg/L) and penicillin ([…]). The harvested cells were centrifuged at 600×g for 5 mins to collect the whole quantity. To remove the red blood cells within bone marrow cells, 3 mL of Tris HCl (0.83% NH4Cl, pH7.5) was added and well mixed. After centrifuging above cells, the numbers of bone marrow cells were counted and then, the bone marrow cells were immediately used for co-culture system with osteoblast.
The calvaria were aseptically ectomized from neonate ICR mice of 1˜2 days, washed with PBS solution and incubated with a mixture of enzyme solution (0.2% collagenase and 0.1% dispase) at 37° C. gentle shaker. […]
Benzamidine derivatives of the present invention were dissolved in a sterile distilled water or ethanol to make desired concentrations following dilution. The final volume of specimen added to the medium was determined at the ratio of 1:1000. […]

N=C(NO)c1ccc(OCc2ccc(COc3ccc(-c4nc(N)sc4CC4CCCC4)cc3)cc2)cc1F [Example 204, N-hydroxy-4-(4-[4-(5-cyclopentylmethyl-2-amino-thiazol-4-yl)-phenoxymethyl]-benzyloxy-2-fluoro)-benzamidine]
% inhibitory activity on osteoclastogenesis: 45.-7%
